Values joined by “and” are separate entries in the source; they are usually repeats but may differ in a detail not shown here. Equal entries are not always repeated. Some of the results follow. For some assays here: The source does not settle which construct or isoform was used.
Key:
Assay in all cases: protein microarray (ProtoArray v5.0), streptavidin-Alexa Fluor 647
Details in all cases: 3'-biotin; 20 mM Tris (pH 7.5), 5 mM MgCl2, 100 mM KCl, 0.1% Tween-20, A/T-rich and random oligonucleotide blockers; temperature not stated; high values mean tight binding
[1] = tested on: Ribonuclease inhibitor (human)
Ropporin-1B (human) = tested on: Ropporin-1B (human)
[2] = tested on: S-adenosylmethionine decarboxylase proenzyme (human)
S100A10 (human) = tested on: S100A10 (human)
S100A11 (human) = tested on: S100A11 (human)
S100A12 (human) = tested on: S100A12 (human)
S100A14 (human) = tested on: S100A14 (human)
S100A2 (human) = tested on: S100A2 (human)
S100A7 (human) = tested on: S100A7 (human)
S100A8 (human) = tested on: S100A8 (human)
SAA1 (human) = tested on: SAA1 (human)
SAA4 (human) = tested on: SAA4 (human)
SAE1 (human) = tested on: SAE1 (human)
SAMD13 (human) = tested on: SAMD13 (human)
SAMD3 (human) = tested on: SAMD3 (human)
SAMD4A (human) = tested on: SAMD4A (human)
SAMHD1 = SAMHD1 (UniProt Q9Y3Z3)
SAPS2 (human) = tested on: SAPS2 (human)
SAR1A (human) = tested on: SAR1A (human)
SAR1B (human) = tested on: SAR1B (human)

Protein sequences, listed by entry. Tags and fused reporters are not part of them. Lines headed by an entry give the natural chain unless they say otherwise; changes in a name come on top.
UniProt Q9Y3Z3: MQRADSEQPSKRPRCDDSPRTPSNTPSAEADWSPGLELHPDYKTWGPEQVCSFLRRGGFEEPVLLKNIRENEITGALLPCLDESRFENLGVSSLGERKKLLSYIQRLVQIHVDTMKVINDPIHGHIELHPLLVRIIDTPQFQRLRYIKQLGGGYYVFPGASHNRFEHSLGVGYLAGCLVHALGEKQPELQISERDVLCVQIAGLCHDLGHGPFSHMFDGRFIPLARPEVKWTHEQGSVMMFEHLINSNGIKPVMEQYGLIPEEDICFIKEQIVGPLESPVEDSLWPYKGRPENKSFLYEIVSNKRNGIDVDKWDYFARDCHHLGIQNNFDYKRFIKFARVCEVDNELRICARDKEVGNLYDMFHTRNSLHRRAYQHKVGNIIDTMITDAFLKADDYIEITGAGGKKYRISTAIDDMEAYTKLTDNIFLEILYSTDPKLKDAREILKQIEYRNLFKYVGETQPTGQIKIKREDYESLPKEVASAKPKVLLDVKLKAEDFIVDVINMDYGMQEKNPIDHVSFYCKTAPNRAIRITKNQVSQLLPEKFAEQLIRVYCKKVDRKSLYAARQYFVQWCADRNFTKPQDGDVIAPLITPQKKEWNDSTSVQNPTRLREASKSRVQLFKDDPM

Q: For “GGGAGGCTGAGGCAGG [G4-1 biotinylated (PQS2)]”, which binding signal [1] is on record?
A: The binding signal was -0.353 z-score.

Q: What about the binding signal (Ropporin-1B (human)) of the same sequence?
A: Its binding signal is -0.369 z-score.

Q: And the binding signal [2]?
A: The binding signal was -0.264 z-score.

Q: And the binding signal (S100A10 (human))?
A: Its binding signal is -0.301 z-score.

Q: What about the binding signal (S100A11 (human)) of the same sequence?
A: The binding signal was -0.29 z-score.

Q: What about the binding signal (S100A12 (human)) of the same sequence?
A: Its binding signal is -0.305 z-score.

Q: What about the binding signal (S100A14 (human)) of the same sequence?
A: The binding signal was -0.373 z-score.

Q: What about the binding signal (S100A2 (human)) of the same sequence?
A: Its binding signal is -0.344 z-score.

Q: What about the binding signal (S100A7 (human)) of the same sequence?
A: Its binding signal is -0.286 z-score.

Q: What about the binding signal (S100A8 (human)) of the same sequence?
A: The binding signal was -0.365 z-score.

Q: And the binding signal (SAA1 (human))?
A: Its binding signal is -0.341 z-score.

Q: And the binding signal (SAA4 (human))?
A: The binding signal was -0.334 z-score.

Q: What about the binding signal (SAE1 (human)) of the same sequence?
A: The binding signal was -0.361 z-score.

Q: And the binding signal (SAMD13 (human))?
A: Its binding signal is -0.32 z-score.

Q: And the binding signal (SAMD3 (human))?
A: Its binding signal is -0.315 z-score.

Q: And the binding signal (SAMD4A (human))?
A: The binding signal was -0.354 z-score.

Q: And the binding signal (SAMHD1)?
A: The binding signal was -0.279 z-score.

Q: And the binding signal (SAPS2 (human))?
A: Its binding signal is -0.352 z-score and -0.331 z-score.

Q: And the binding signal (SAR1A (human))?
A: The binding signal was -0.356 z-score.

Q: What about the binding signal (SAR1B (human)) of the same sequence?
A: Its binding signal is -0.36 z-score.
